Positions count from the first letter of the chain named. No constants are given. Whether binding was seen depends on the method and setting. In cells and extracts the contact can be indirect. Some binding calls cover weakened binding; strength is not graded here.
Columns and labels:
[1] = target: T1, membrane palmitoylated protein 2 (MPP2), wild type (human) (UniProt Q14168); experiment: co-IP; cell lysate supernatant incubated with anti-MPP2 antibody at 4 °C overnight, protein A/G Sepharose beads, eluted with SDS loading buffer, western blotting
T1 sequence: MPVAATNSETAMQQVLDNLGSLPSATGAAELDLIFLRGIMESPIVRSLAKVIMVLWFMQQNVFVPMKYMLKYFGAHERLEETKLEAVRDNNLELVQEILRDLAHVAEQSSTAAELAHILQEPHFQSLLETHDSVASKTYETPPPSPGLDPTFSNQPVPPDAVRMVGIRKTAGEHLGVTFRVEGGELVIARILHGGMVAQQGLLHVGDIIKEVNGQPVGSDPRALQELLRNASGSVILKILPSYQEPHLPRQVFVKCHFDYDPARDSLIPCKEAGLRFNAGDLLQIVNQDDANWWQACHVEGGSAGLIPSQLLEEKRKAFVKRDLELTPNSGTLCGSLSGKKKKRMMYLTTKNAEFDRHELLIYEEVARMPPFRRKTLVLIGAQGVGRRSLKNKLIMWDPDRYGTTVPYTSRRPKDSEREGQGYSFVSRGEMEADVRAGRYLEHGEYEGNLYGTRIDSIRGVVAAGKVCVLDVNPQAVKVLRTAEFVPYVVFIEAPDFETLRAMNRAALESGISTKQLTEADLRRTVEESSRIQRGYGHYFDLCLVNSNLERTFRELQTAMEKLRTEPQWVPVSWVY

Amino acid sequences for entries named in this document (tags omitted).
UniProt P68104: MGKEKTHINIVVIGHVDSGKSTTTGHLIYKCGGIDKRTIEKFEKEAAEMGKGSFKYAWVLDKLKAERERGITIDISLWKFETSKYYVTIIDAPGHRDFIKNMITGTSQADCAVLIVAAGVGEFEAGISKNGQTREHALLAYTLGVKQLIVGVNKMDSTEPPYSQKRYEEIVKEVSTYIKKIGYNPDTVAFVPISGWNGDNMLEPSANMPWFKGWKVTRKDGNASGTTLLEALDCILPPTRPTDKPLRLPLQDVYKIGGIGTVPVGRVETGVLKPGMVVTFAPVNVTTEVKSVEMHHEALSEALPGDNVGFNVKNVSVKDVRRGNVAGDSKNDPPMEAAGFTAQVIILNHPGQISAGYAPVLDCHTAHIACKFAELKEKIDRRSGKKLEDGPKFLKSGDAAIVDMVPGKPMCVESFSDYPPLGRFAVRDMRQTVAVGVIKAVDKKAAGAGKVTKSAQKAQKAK
UniProt P07355: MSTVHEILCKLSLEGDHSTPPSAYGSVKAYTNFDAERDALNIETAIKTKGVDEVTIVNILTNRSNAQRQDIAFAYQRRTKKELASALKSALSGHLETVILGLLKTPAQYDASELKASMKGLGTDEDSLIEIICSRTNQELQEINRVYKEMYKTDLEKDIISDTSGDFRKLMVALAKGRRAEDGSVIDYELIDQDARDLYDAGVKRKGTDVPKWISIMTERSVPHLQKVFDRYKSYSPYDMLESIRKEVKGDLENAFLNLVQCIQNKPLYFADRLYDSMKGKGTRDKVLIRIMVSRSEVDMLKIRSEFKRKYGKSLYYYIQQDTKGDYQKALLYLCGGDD

[2] = target: T2, membrane palmitoylated protein 2 (MPP2) p.K315N (human) (UniProt Q14168); experiment: as above
T2 sequence: T1 sequence with K315N

| binding [1] | binding [2] | Substance |
| --- | --- | --- |
| binds |  | EEF1A1 (from UniProt P68104 1-462) |
| binds | binds | annexin A2 (ANXA2) (from UniProt P07355 1-339) |

Reference: paper PMC10616125
